# These are yes or no findings as the source states them, for the method shown. Binding seen in cells or lysates may run through a third protein. Binding calls can cover weak binding; strength is not graded here.
# Sequences of proteins named here, by UniProt entry; tags and fusion partners are left off. A change or cut given only in a name is not applied to a line headed by its entry. Residues count along the entry.
# UniProt Q91ZX7: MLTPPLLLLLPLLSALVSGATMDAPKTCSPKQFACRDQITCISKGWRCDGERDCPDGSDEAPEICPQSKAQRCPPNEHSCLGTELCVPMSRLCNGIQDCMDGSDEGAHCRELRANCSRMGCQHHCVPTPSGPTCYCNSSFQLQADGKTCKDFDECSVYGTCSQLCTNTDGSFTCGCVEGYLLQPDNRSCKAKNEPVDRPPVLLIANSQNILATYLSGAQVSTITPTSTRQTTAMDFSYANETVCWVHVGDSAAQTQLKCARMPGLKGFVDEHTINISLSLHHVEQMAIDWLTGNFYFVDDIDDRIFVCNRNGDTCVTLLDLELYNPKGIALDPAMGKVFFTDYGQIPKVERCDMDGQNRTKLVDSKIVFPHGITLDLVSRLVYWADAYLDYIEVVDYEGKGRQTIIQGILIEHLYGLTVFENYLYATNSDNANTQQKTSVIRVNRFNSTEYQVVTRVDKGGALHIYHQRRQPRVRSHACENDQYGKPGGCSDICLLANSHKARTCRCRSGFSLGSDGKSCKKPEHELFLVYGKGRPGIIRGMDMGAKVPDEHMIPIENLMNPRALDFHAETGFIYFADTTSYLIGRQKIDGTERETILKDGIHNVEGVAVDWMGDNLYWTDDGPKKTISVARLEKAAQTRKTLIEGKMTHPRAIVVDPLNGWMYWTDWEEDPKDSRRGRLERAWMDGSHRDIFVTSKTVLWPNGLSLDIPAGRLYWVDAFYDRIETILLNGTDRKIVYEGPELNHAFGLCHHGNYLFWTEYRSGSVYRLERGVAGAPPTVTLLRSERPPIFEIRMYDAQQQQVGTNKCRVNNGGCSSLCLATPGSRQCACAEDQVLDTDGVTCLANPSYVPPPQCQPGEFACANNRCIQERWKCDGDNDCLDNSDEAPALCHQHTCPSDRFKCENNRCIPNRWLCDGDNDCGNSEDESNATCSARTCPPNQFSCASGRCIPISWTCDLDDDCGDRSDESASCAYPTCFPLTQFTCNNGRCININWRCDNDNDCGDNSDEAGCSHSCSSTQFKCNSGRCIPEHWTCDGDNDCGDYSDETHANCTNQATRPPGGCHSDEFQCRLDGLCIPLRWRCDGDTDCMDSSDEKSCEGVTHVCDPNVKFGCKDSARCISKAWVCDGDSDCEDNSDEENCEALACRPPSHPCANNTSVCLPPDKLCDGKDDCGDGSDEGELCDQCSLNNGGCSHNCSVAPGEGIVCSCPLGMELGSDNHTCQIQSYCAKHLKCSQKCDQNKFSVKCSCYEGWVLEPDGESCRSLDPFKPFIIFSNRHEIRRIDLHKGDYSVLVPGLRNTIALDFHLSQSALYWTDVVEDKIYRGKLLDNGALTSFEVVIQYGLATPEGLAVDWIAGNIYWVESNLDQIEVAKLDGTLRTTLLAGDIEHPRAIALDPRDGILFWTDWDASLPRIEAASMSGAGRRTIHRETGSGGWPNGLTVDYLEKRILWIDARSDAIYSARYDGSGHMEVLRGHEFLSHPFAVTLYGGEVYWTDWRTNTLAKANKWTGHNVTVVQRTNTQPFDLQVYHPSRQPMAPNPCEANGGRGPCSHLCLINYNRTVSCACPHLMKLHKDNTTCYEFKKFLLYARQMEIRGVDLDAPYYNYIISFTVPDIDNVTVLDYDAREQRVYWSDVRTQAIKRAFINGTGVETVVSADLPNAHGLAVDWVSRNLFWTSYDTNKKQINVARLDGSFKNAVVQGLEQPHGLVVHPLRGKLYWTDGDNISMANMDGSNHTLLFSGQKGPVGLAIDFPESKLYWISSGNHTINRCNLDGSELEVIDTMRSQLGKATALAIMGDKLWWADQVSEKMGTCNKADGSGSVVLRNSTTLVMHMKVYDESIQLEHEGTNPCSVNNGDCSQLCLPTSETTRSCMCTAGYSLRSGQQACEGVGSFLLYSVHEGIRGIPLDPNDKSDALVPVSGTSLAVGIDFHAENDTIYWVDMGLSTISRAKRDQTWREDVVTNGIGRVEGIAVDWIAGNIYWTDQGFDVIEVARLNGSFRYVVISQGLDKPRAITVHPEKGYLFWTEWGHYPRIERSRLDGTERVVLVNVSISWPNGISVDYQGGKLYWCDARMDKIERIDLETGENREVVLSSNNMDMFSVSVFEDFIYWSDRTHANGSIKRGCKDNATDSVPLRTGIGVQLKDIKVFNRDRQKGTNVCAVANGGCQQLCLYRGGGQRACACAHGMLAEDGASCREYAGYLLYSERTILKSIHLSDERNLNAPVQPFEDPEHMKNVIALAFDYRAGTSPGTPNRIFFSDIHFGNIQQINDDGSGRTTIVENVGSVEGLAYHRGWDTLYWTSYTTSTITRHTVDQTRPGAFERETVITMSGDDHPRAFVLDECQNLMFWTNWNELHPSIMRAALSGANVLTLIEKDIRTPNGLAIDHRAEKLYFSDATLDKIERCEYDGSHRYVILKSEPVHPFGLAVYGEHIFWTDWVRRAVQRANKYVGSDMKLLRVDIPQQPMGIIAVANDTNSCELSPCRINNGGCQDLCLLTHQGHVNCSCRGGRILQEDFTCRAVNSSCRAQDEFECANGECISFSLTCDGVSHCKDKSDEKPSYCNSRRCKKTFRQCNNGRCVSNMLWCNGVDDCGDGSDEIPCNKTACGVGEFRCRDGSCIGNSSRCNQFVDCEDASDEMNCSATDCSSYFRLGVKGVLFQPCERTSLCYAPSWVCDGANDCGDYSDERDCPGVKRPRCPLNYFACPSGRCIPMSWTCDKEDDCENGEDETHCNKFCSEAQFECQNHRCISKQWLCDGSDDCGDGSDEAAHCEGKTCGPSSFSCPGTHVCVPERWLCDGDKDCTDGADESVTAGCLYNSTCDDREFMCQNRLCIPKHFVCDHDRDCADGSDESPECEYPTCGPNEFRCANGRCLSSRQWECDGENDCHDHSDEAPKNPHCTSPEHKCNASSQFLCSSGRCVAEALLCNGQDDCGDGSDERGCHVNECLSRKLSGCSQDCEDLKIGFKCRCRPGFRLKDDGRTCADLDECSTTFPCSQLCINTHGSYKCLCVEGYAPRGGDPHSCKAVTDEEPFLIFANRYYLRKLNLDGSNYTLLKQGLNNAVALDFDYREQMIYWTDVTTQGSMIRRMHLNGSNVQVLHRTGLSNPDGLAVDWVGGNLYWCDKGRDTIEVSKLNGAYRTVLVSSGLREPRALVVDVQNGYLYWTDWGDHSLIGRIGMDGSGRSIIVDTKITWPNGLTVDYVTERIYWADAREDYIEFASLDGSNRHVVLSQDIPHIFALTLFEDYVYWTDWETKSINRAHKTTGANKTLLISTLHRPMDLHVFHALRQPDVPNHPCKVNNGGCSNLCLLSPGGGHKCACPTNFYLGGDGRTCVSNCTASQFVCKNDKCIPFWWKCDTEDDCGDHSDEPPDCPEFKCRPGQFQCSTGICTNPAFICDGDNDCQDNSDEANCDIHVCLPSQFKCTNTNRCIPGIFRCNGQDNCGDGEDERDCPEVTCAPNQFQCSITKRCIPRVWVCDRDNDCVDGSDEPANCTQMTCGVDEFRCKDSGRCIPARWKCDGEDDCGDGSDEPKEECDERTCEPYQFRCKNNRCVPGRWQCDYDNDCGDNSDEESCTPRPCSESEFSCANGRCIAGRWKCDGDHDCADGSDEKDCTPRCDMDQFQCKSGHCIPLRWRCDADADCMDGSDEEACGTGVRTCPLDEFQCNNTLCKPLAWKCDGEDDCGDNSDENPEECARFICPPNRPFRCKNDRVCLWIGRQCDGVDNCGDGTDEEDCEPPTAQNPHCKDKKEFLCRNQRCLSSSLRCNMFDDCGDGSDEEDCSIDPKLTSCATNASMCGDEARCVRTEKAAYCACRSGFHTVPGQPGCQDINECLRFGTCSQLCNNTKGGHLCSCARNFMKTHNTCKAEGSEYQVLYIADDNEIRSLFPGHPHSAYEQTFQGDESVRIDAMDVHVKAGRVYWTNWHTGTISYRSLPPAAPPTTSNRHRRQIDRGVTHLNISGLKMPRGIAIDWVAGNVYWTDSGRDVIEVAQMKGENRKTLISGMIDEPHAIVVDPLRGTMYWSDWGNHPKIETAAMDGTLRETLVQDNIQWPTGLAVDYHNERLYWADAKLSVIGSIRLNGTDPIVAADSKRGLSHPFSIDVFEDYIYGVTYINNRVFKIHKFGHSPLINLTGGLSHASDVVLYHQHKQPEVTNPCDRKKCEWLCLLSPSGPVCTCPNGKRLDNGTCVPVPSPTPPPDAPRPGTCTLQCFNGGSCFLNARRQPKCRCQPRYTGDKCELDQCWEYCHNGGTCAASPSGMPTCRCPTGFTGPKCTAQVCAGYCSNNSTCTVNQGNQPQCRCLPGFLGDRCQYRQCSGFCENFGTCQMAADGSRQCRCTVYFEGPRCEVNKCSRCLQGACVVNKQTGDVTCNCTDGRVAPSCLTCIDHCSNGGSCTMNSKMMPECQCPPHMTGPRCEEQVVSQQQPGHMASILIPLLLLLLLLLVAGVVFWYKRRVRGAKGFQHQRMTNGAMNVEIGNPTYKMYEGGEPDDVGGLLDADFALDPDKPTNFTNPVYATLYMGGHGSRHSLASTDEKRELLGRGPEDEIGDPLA
# UniProt Q01097, residues 27-1482: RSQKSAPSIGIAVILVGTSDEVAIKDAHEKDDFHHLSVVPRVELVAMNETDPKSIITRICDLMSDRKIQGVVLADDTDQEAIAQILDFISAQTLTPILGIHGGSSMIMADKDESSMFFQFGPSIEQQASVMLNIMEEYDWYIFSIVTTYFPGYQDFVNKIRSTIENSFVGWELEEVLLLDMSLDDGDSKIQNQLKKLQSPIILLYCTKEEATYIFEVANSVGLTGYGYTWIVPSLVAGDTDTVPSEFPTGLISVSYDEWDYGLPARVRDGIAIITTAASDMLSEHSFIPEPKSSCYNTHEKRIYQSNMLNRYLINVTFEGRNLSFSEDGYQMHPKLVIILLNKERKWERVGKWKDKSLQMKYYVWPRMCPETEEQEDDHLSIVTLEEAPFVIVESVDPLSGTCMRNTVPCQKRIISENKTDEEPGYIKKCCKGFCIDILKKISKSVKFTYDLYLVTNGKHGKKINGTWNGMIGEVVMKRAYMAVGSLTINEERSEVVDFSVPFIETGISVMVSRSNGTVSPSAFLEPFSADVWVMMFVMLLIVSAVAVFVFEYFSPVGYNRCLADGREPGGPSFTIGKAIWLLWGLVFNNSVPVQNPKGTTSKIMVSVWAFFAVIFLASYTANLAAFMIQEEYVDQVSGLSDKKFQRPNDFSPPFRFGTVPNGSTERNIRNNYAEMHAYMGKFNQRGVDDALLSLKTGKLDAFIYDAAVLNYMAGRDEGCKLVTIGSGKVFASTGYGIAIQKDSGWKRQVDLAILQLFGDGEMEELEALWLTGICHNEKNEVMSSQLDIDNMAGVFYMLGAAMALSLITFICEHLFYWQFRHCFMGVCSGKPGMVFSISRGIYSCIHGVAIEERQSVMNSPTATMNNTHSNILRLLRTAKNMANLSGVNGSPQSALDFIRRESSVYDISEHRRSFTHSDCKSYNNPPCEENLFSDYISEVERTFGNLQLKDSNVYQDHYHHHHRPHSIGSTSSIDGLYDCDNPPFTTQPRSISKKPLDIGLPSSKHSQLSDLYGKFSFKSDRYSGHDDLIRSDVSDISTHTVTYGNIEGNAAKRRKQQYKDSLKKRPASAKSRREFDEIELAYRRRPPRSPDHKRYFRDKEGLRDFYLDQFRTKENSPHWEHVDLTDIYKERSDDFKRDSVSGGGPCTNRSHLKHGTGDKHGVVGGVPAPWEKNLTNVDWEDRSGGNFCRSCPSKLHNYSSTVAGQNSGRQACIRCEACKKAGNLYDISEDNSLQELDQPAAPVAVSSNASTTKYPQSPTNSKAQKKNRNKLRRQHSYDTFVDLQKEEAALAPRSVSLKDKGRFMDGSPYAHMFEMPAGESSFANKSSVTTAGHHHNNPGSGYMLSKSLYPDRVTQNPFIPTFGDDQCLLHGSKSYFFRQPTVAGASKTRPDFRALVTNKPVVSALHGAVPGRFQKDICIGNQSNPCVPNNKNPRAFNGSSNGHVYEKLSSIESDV
# Columns and labels:
# [1] = molecular target: LRP1 with alanine substituted NPxY2 motif (LRP1ΔNPxY2) (mouse (endogenous in primary cortical neurons)) (UniProt Q91ZX7); experiment: co-IP; lysates of primary cortical neurons (WT or LRP1ΔNPxY2) in RIPA buffer with protease and phosphatase inhibitors; equal amounts of total lysate (80 µg) precipitated with polyclonal LRP1 antibody 1704 and protein G sepharose at 4°C overnight; Western blot for NR1, NR2B or PSD95
# [2] = molecular target: LRP1 with alanine substituted NPxY2 motif (LRP1ΔNPxY2) (mouse (endogenous in primary cortical neurons)) (UniProt Q91ZX7); experiment: co-IP; neuronal lysates in RIPA buffer with protease inhibitors, 100 µg protein treated with 1000 units calf intestinal phosphatase (CIP) in phosphatase buffer (50 mM Tris-HCl, 100 mM NaCl, 10 mM MgCl2, 1 mM DTT, pH 7.9) at 37°C for 30 min before immunoprecipitation of LRP1 and Western blot
substance,measurement,setting,value
NMDA receptor subunit 2B (NR2B) (from UniProt Q01097 27-1482),binding,[1],binds
same,binding,[2],binds

# From article PMC3722104
